Test results published in PubChem BioAssay AID1671190 (National Center for Advancing Translational Sciences (NCATS), 2021).
About 6,100 (1.1%) of roughly 580,000 compounds were called active. The shares of active, inactive and inconclusive entries below differ from those in the screen. Calls come from the whole dose curve; as a rule, active = well fitted inhibition curve with a large enough effect; inconclusive = small, poorly fitted or top-dose-only effect, or another doubt; inactive = no such curve, though single readings can be large or run the other way. A potency beside an inconclusive call is a rough fit, not a confirmed value.

Chains of the proteins cited; added tags and fusions are not shown.
UniProt P18054, whole entry, looked up: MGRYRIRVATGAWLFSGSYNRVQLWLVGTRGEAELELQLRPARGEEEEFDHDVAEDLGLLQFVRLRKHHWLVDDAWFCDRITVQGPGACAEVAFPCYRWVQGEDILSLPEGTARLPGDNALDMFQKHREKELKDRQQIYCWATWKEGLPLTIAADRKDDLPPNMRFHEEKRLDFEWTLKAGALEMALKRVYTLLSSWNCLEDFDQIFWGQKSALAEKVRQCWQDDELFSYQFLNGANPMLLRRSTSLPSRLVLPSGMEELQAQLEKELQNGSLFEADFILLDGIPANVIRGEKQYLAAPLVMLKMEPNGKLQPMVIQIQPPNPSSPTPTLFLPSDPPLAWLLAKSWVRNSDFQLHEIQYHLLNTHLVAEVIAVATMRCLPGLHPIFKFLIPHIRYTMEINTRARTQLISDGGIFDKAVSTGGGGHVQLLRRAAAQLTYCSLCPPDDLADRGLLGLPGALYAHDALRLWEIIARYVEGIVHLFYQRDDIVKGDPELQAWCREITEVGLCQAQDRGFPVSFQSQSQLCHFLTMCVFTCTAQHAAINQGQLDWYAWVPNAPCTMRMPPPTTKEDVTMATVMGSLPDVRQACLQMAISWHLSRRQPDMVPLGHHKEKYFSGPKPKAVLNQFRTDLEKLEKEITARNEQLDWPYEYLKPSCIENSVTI

Target: Polyunsaturated fatty acid lipoxygenase ALOX12 (Homo sapiens) (UniProt P18054)
Assay: Primary qHTS assay for inhibitors of human arachidonate 12S-lipoxygenase (ALOX12): Round 2
Details: purified 12hLO, xylenol orange hydroperoxide absorbance; activity change, negative = inhibition: at 108 µM (top of the series) unless noted
Outline: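 Purified human 12hLO (150 nM final) in 25 mM Hepes, 0.01% Triton X-100, pH 7.0 was preincubated 15 min at room temperature with compound. Then 40 uM arachidonic acid was added, 30 min. Hydroperoxide was read by Fe-XO absorbance ratio 573/405 nm.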
% is set by controls: 0 for no effect and ±100 for the full control effect; potency is the fitted concentration of half-maximal effect.

Row | SMILES | Potency | activity change, negative = inhibition
1 | O=C(c1ccco1)N1N=C(c2ccccc2O)CC1c1cccs1 (stereo unspecified) | inconclusive: 44.7 µM [inhibitor, partial curve, poor fit] | –
2 | O=c1[nH]c(-n2cccc2)c(-c2c(-c3cccc(Cl)c3)[nH]c3[nH]c(=O)[nH]c(=O)c23)c(=O)[nH]1 | inconclusive: 22.4 µM [inhibitor, full curve, poor fit] | –
3 | COc1ccc(OC)c(CN2CCN(C(=O)c3ccco3)CC2)c1 | inconclusive: 0.447 µM [inhibitor, full curve, poor fit] | –
4 | COc1ccc(-c2nc(C3CC(=O)N(c4ccc(F)c(Cl)c4)C3)no2)cc1 (stereo unspecified) | – | inactive: 4.09%
5 | COCCN1CCC(CN(Cc2ccc(Cl)s2)CC2CCCO2)CC1 (stereo unspecified) | – | inactive: 24.1%
6 | O=C(COC(=O)c1ccc(O)cc1O)c1ccc(Cl)cc1 | active: 44.7 µM | –
7 | Cc1ccc(-n2c(SCC(=O)NCC3CCCO3)nc3ccccc3c2=O)cc1 (stereo unspecified) | – | inactive: 9.77%
8 | COc1cc(/C=N/NC(=O)/C(=C\c2ccc([N+](=O)[O-])cc2)NC(=O)c2ccccc2)cc(OC)c1O | inconclusive: 0.562 µM [inhibitor, full curve, poor fit] | –
9 | CCCCC[C@@H](C)N1C[C@@H](COCc2ccccc2)Oc2cc(N3CC[C@@H](O)C3)ccc2S1(=O)=O | inconclusive: 44.7 µM [inhibitor, partial curve, poor fit] | –
10 | COc1cc(CN2CCC(C(=O)N3CCC(C)CC3)CC2)cc(Br)c1O | inconclusive: 1.26 µM [inhibitor, full curve] | –
11 | O=C1NNC(c2ccccc2)=N/C1=C\c1ccco1 | inconclusive: 39.8 µM [inhibitor, partial curve, poor fit] | –
12 | O=C(Nc1ccc([C@@H](O)[C@H]2COCC(=O)N2CCCc2ccccc2)cc1)C1CCC1 | – | inactive: 50.2% [at 176 µM]
13 | CC(C)C(=O)Nc1ccc(NC(=O)c2cccs2)cn1 | active: 44.7 µM | –
14 | O=C1C=C(Nc2ccc(C(F)(F)F)cc2)CCC1 | inconclusive: 112 µM [inhibitor, single point] | –
15 | CCC1CN(CC(=O)NCc2cccc(Br)c2)c2ccccc2S1 (stereo unspecified) | inconclusive: 112 µM [inhibitor, partial curve, poor fit] | –
16 | COc1ccc(NC(=O)CSc2nncn2Cc2ccco2)cc1 | – | inactive: 2.31%
17 | COc1cc(NC(=O)c2cncc(-c3ccc(C#N)cc3)c2)cc(C(=O)Nc2cccc(C(F)(F)F)c2)c1 | inconclusive: 112 µM [inhibitor, single point] | –
18 | COc1ccc([N+](=O)[O-])c(S(=O)(=O)c2ccc(Cl)cc2)n1 | – | inactive: -23.9%
19 | O=C(CS(=O)(=O)c1ccccc1)Nc1nnc(Cc2ccccc2)s1 | – | inactive: 0%
20 | O=C(C1CCC(=O)N1Cc1ccccc1Cl)N1CCN(c2cccc(Cl)c2)CC1 (stereo unspecified) | – | inactive: 398%
21 | Cc1ccccc1C(=O)N[C@@H](Cc1cccnc1)C(=O)N1CCC[C@H]1C(=O)NCCc1ccccc1Cl | inconclusive: 50.1 µM [inhibitor, partial curve, poor fit] | –
22 | O=C(NC1CCCCCC1)C(=S)N1CCOCC1 | inconclusive: 28.2 µM [inhibitor, partial curve, poor fit] | –

Entries of single compounds as entered above. Order of values: Potency | activity change, negative = inhibition
`COc1cc(CN2CCC(C(=O)N3CCC(C)CC3)CC2)cc(Br)c1O` in the list: inconclusive: 1.26 µM [inhibitor, full curve] | –
`O=C(COC(=O)c1ccc(O)cc1O)c1ccc(Cl)cc1` in the list: active: 44.7 µM | –
`Cc1ccc(-n2c(SCC(=O)NCC3CCCO3)nc3ccccc3c2=O)cc1` (stereo unspecified) in the list: – | inactive: 9.77%
`COc1cc(NC(=O)c2cncc(-c3ccc(C#N)cc3)c2)cc(C(=O)Nc2cccc(C(F)(F)F)c2)c1` in the list: inconclusive: 112 µM [inhibitor, single point] | –

Remaining list, next part:

Row | SMILES | Potency | activity change, negative = inhibition
23 | COc1ccc(CN2C(=O)C(n3ccc4ccccc43)c3cc(Cl)ccc32)cc1 (stereo unspecified) | inconclusive: 44.7 µM [inhibitor, partial curve] | –
24 | O=C(Nc1cccc(C(F)(F)F)c1)c1cc(=O)c2ccccc2o1 | – | inactive: 19.3%
25 | C[C@H]1CN([C@@H](C)CO)C(=O)CCCn2nncc2CO[C@@H]1CN(C)C(=O)c1ccc(N2CCN(C)CC2)cc1 | inconclusive: 112 µM [inhibitor, single point] | –
26 | O=c1c(-c2ccccc2)nc2cnc(N3CCOCC3)nc2n1Cc1cccs1 | inconclusive: 141 µM [inhibitor, single point] | –
27 | N#Cc1sc2ncccc2c1N | inconclusive: 3.98 µM [inhibitor, full curve, poor fit] | –
28 | O=C1CCc2cc(S(=O)(=O)NC3CCCCC3)cc3c2N1CC3 | – | inactive: -29.9%
29 | C[C@H](O)[C@@H]1CN2CCc3c([nH]c4c(-c5ccc6c(c5)OCO6)cccc34)[C@@H]2C[C@@H]1N(C)C(=O)NC1CCCCC1 | inconclusive: 28.2 µM [inhibitor, single point] | –
30 | CCCN(CCC)C(=O)CC(c1ccccc1)c1cc(Br)ccc1O (stereo unspecified) | – | inactive: -18.3%
31 | CCCCN1Cc2c(sc(C)c2C)N(C(=O)c2ccccc2)C1 | inconclusive: 0.631 µM [inhibitor, full curve, poor fit] | –
32 | COc1ccc(C/C(C)=N/NC(=S)Nc2ccccc2)cc1 | inconclusive: 44.7 µM [inhibitor, partial curve, poor fit] | –
33 | Cc1ccc(-c2cc(N3CCCN(C(=O)c4ccccc4C)CC3)n[nH]2)cc1C | – | inactive: 25.9%
34 | COc1cc(OC)c(NC(=O)Cn2nc(-c3ccc(C)cc3)ccc2=O)cc1Cl | inconclusive: 8.91 µM [inhibitor, full curve] | –
35 | COC(=O)C1=CN(c2ccc(OC)cc2)C(N)=C(C#N)C1c1cccc2ccccc12 (stereo unspecified) | inconclusive: 5.62 µM [inhibitor, full curve, poor fit] | –
36 | COc1ccc(Br)cc1/C=N/n1c(-c2ccccc2)n[nH]c1=S | – | inactive: -2.74%
37 | Cc1nn(C)c(C)c1CCNC(=O)CCC[C@H]1NC[C@@H]2C[C@H]1CN(Cc1ccccc1)C2 | – | inactive: 27.8%
38 | COC(=O)Cc1c(C)c2ccc3c(c2oc1=O)CN(Cc1ccc(Cl)cc1)CO3 | inconclusive: 100 µM [inhibitor, partial curve, poor fit] | –
39 | O=[N+]([O-])c1ccc(O)c(NC(=S)Nc2ccccc2)c1 | – | inactive: -22%
40 | COc1ccc(Cc2nnc3n2N(C(C)=O)C(c2ccccc2)=C(C(C)=O)S3)cc1 | – | inconclusive: -30.1% [inhibitor]
41 | N#CCCN(Cc1ccccc1)C(=O)CCC(=O)c1ccc(F)cc1 | inconclusive: 89.1 µM [inhibitor, partial curve, poor fit] | –
42 | COc1cc(C(C2C(=O)CC(C)(C)CC2=O)C2C(=O)CC(C)(C)CC2=O)ccc1O | inconclusive: 20 µM [inhibitor, partial curve, poor fit] | –
43 | CC[C@H](C)[C@H]1CNC(=O)C(=O)N1CC1CCN(CCc2ccc(Cl)c(Cl)c2)CC1 | inconclusive: 79.4 µM [inhibitor, single point] | –
44 | Cc1ccccc1CNC(=O)COC(=O)c1ccc2c(c1)NC(=O)CS2 | inconclusive: 5.01 µM [inhibitor, full curve, poor fit] | –

Row | SMILES | Potency | activity change, negative = inhibition
45 | Cc1ccc(C(=O)Oc2ccc(Br)cc2C(=S)N2CCOCC2)cc1 | inconclusive: 44.7 µM [inhibitor, partial curve, poor fit] | –
46 | CC(Sc1nncn1C)C(=O)Nc1nnc(-c2ccccc2)s1 (stereo unspecified) | – | inactive: 2.45% [at 57.4 µM]
47 | CCOc1ccc(NC(=O)CN(C)S(=O)(=O)c2ccc(-c3ccc(=O)[nH]n3)s2)cc1 | – | inactive: -4.03%
48 | CCCCNC(=O)COC(=O)c1c2c(nc3ccccc13)/C(=C\c1cccs1)CC2 | inconclusive: 44.7 µM [inhibitor, partial curve, poor fit] | –
49 | COc1ccc(NS(=O)(=O)c2cc([N+](=O)[O-])ccc2NN=Cc2ccccc2OCC(=O)O)cc1 | inconclusive: 44.7 µM [inhibitor, partial curve, poor fit] | –
50 | Cc1cccc(CNC(=O)c2ccc(Cn3c(SCc4cccc(F)c4)nc4cccnc43)cc2)c1 | inconclusive: 1 µM [inhibitor, full curve, poor fit] | –
51 | N/C(Cn1nnc(-c2ccccc2)n1)=N\O | inconclusive: 50.1 µM [inhibitor, partial curve, poor fit] | –
52 | CN1CCN(C(=O)Cn2ccc3ccccc32)CC1 | – | inactive: 12.4%
53 | O=C(CN1CCN(c2ccccn2)CC1)Nc1ccc(F)cc1 | inconclusive: 0.251 µM [inhibitor, full curve, poor fit] | –
54 | CN1CCC(N2CCN(C(=O)c3ccncc3)CC2)C1=O (stereo unspecified) | – | inactive: 85.2%
55 | COc1ccc(CNC(=O)COc2ccc3c(=O)c(Oc4ccc(F)cc4)coc3c2)cc1 | inconclusive: 3.16 µM [inhibitor, full curve, poor fit] | –
56 | O=C(Nc1ccc(Cl)c(Cl)c1)c1cccnc1 | inconclusive: 89.1 µM [inhibitor, single point] | –
57 | O=C(NCc1cccs1)c1ccc2c(c1)N(Cc1ccccc1)C(=O)CS2=O (stereo unspecified) | – | inactive: -16.6%
58 | COc1cccc(NC(=S)N2CCC(Cc3ccccc3)CC2)c1 | inconclusive: 39.8 µM [inhibitor, full curve, poor fit] | –
59 | O=C(CNc1cccc(S(=O)(=O)N2CCCCC2)c1)N1CCN(C(=O)c2cccs2)CC1 | inconclusive: 141 µM [inhibitor, single point] | –
60 | Nc1ccc2c(O)cc(S(=O)(=O)O)cc2c1 | inconclusive: 14.1 µM [inhibitor, partial curve] | –
61 | Cc1ccc(S(=O)(=O)N2CCCC2C(=O)NC2=NCCS2)cc1 (stereo unspecified) | inconclusive: 35.5 µM [inhibitor, partial curve, poor fit] | –
62 | CCN(C(=O)CSc1nc2ccccc2n1CC(=O)N1CCCC(C)C1)c1ccccc1 (stereo unspecified) | inconclusive: 141 µM [inhibitor, partial curve, poor fit] | –
63 | CN(Cc1ccccc1)Cc1cn(C[C@H]2O[C@@H](CC(=O)N(C)Cc3ccccc3)[C@H](O)[C@@H]2O)nn1 | inconclusive: 15.8 µM [inhibitor, full curve] | –
64 | CS(=O)(=O)N1CCC(C(=O)Nc2ccc(Cl)cc2Cl)CC1 | – | inactive: 11.3%
65 | O=C(CC(NCc1cccnc1)C(=O)O)Nc1ccc(O)cc1 (stereo unspecified) | inconclusive: 0.708 µM [inhibitor, full curve, poor fit] | –
66 | CCOC(=O)C1NN=C(C(=O)c2ccc(C)cc2)C1c1ccc(C)cc1 (stereo unspecified) | inconclusive: 39.8 µM [inhibitor, partial curve, poor fit] | –
